Test results taken from patent publication US20050013914A1, “Method of sustaining aroma and use thereof” (priority 2001, published 2005).
At least one compound was matched to its structure with a doubt left.

Assay: Adsorption of aromatic substances on CTS crystalline anhydrate (Example C-3)
Type: physicochemical
Conditions: aromatic substance adsorbed per 1 g of CTS crystalline anhydrate
Procedure: The following explains the experimental method in detail. […] The amount of the adsorbed aromatic substances was calculated by measuring the weight of the resulting powders and subtracting their starting powder weight (4 g).

**Q.** With `CCOC(C)=O` [Etyl Acetate] as the compound, how does the “Amount of Adsorbed Substance” value read?
**A.** 0.41 g
